Laboratory results: PubChem BioAssay AID1671190 (National Center for Advancing Translational Sciences (NCATS), 2021)
Values joined by “and” are separate entries in the source; they are usually repeats but may differ in a detail not shown here. Equal values may be shown once. Screen size: about 580,000 compounds; about 6,100 (1.1%) were called active. The inconclusive results got no clear call from the source; some entries with a clear call stand among them for comparison. The call rests on the fitted dose curve; in most records, active means well fitted inhibition curve with a large enough effect; inconclusive means small, poorly fitted or top-dose-only effect, or another doubt; inactive means no such curve, though single readings can be large or run the other way. Where the call is inconclusive, the potency comes from a doubtful curve fit.

Amino acid sequences for entries named in this document (tags omitted). A change or cut given only in a name is not applied to a line headed by its entry.
UniProt P18054: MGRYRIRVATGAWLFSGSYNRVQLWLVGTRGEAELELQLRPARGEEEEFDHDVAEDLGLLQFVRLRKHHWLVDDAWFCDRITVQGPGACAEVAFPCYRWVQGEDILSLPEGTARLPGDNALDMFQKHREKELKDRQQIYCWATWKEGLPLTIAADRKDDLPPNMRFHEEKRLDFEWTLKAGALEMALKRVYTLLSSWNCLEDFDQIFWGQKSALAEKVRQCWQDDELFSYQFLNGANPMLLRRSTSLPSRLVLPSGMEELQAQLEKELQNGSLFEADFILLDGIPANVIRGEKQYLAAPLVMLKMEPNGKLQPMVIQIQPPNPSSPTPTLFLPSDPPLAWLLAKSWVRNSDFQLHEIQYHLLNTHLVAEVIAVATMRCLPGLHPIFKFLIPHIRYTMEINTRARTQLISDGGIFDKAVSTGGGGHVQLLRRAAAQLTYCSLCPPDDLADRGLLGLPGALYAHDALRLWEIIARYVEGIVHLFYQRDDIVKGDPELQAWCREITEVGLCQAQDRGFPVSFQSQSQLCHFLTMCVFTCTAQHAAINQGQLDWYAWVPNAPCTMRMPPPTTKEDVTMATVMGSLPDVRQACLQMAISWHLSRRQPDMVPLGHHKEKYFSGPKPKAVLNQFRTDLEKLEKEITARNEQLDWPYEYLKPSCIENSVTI

Each compound was assayed against Polyunsaturated fatty acid lipoxygenase ALOX12 (Homo sapiens) (UniProt P18054) (assay: Primary qHTS assay for inhibitors of human arachidonate 12S-lipoxygenase (ALOX12): Round 2). Details: purified 12hLO, xylenol orange hydroperoxide absorbance; series mostly up to 108 µM.
Summary of the method: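 Hydroperoxide product was detected by ferrous iron/xylenol orange as the 573 to 405 nm absorbance ratio. Arachidonic acid at 40 uM (final) was turned over for 30 min at room temperature by 150 nM human 12hLO, pH 7.0 Hepes buffer, after 15 min compound preincubation.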
Potency means the concentration at half of the fitted maximal effect.

| Compound | Potency |
| --- | --- |
| Cc1ccc(-c2noc([C@@H]3CCCN3C(=O)c3ccc(C(C)C)cc3)n2)cc1 | inconclusive: 15.8 µM [inhibitor, full curve] |
| O=C(N/N=C/c1ccc(-c2cccc([N+](=O)[O-])c2)o1)c1cccs1 | inactive |
| Cc1ccccc1C1=CCN(c2ncc(NC(=O)c3ccc(Cl)cc3)cc2C(=O)O)CC1 | inactive |
| COc1ccccc1NC(=S)Nc1ccccn1 | active: 39.8 µM |
| C#CCNC(=O)c1cc2c(Br)ccc(Br)c2nc1N | inconclusive: 56.2 µM [inhibitor, partial curve, poor fit] |
| O=C(CCc1c(-c2ccc(F)cc2)[nH]c2ccc(F)cc12)N1CCC1 | inactive |
| Cc1cccc(Nc2nc(C)nc3c2oc2ccccc23)c1 | inconclusive: 17.8 µM [inhibitor, partial curve, poor fit] |
| O=C(O)C1OCC2(CO1)COC(C(=O)O)OC2 (stereo unspecified) | inconclusive: 44.7 µM [inhibitor, partial curve, poor fit] |
| CCN(CC)CCN1C(=O)C(O)=C(C(C)=O)C1c1ccc(OC)c(OC)c1 (stereo unspecified) | inconclusive: 31.6 µM [inhibitor, partial curve, poor fit] |
| O=C(NCc1cccnc1)C1CCN(S(=O)(=O)c2cc(Cl)ccc2Cl)CC1 | inactive |
| Cc1cccc(C(=O)Nc2nn3c(-c4cccc(C)c4)nnc3s2)c1 | inactive |
| CN(C)CCc1cc2c(c3c1ccc1ccccc13)OCO2 | inconclusive: 1.26 µM [inhibitor, full curve, poor fit] and inconclusive: 50.1 µM [inhibitor, partial curve, poor fit] |
| CCC(CC)c1nnc(NC(=O)C2CCN(C(=O)c3ccco3)CC2)s1 | inconclusive: 39.8 µM [inhibitor, partial curve] |
| C[C@@H]1C=C(C(=O)O)O[C@H](OCc2ccc(CO)cc2)C1 | inconclusive: 14.1 µM [inhibitor, full curve, poor fit] |
| COc1cccc(NC(=O)[C@H](C)NC(=O)N2CCn3c2nc2ccccc23)c1 | inactive |
| Cc1ccc(C)c(N2CCN(C(=O)c3ccc4nc(-c5ccco5)c(-c5ccco5)nc4c3)CC2)c1 | inconclusive: 0.199 µM [inhibitor, full curve, poor fit] |
| Oc1ccc(Cl)cc1C(C#Cc1ccccc1)N1CCOCC1 (stereo unspecified) | inconclusive: 35.5 µM [inhibitor, partial curve, poor fit] |
| COC(=O)[C@]12CCCCC=C1N(Cc1ccc3c(c1)OCO3)C(=O)[C@H](CC(=O)NCCC(C)C)C2 | inconclusive: 44.7 µM [inhibitor, partial curve, poor fit] |
| O=c1[nH]c(/C(Cl)=C/c2cc(Cl)ccc2O)nc2cc(Cl)ccc12 | inconclusive: 89.1 µM [inhibitor, partial curve, poor fit] |
| O=c1cc(Cl)[nH]n(-c2ccccc2)c1=O | inconclusive: 31.6 µM [inhibitor, partial curve, poor fit] |
| O=C(O)c1nccnc1C(=O)O | inconclusive: 0.141 µM [inhibitor, full curve, poor fit] |

A portion from the list above, as a working copy:

| Compound | Potency |
| --- | --- |
| COc1cccc(NC(=O)[C@H](C)NC(=O)N2CCn3c2nc2ccccc23)c1 | inactive |
| Cc1ccc(C)c(N2CCN(C(=O)c3ccc4nc(-c5ccco5)c(-c5ccco5)nc4c3)CC2)c1 | inconclusive: 0.199 µM [inhibitor, full curve, poor fit] |
| Oc1ccc(Cl)cc1C(C#Cc1ccccc1)N1CCOCC1 (stereo unspecified) | inconclusive: 35.5 µM [inhibitor, partial curve, poor fit] |

(continued)

| Compound | Potency |
| --- | --- |
| COc1c(Cl)cc(Cl)cc1C(=O)Nc1ccc(CN2CCCCC2)cc1 | inconclusive: 2 µM [inhibitor, single point] |
| O=C(NCc1ccco1)C1CC(c2c(Cl)cccc2Cl)=NO1 (stereo unspecified) | inactive |
| CC(C)(C)c1ccc(-c2nc(C#N)c(NCc3ccccc3)o2)cc1 | inconclusive: 89.1 µM [inhibitor, single point] |
| Cn1cc(CNCC2(COc3cccnc3)C[C@@H](O)[C@@H](O)C2)c2ccccc21 (stereo partly specified) | inconclusive: 15.8 µM [inhibitor, full curve, poor fit] |
| CN(C)c1ccc(CNc2ccc3c(c2)ncn3C(C)(C)C)cc1 | inactive |
| CC12CC3CC(C)(C1)CC(C(=O)NC1CCCC1)(C3)C2 | inactive |
| CS(=O)(=O)n1nc(-c2ccco2)nc1NCc1ccccc1Cl | inconclusive: 70.8 µM [inhibitor, partial curve, poor fit] |
| Cc1ccc(-c2nc3ncccn3c2NC2CCCC2)o1 | inconclusive: 56.2 µM [inhibitor, partial curve, poor fit] |
| COc1cc(Cl)c(C)cc1-n1cc(C(=O)c2cc(Br)ccc2O)cc(C#N)c1=O | inconclusive: 141 µM [inhibitor, partial curve, poor fit] |
| COc1cc(OC)cc(C(=O)NCCSC2CCCCC2)c1 | inactive |
| C=CC[C@@H](CC(=O)N[C@H](CO)Cc1ccccc1)C(=O)N[C@H](COC(=O)[C@@H](CC=C)Cc1ccc(F)cc1)Cc1c[nH]c2ccccc12 | inconclusive: 126 µM [inhibitor, single point] |
| CCOC(=O)c1c(NC(=O)C(CC)Oc2ccccc2)sc(C)c1C (stereo unspecified) | inconclusive: 112 µM [inhibitor, partial curve, poor fit] |
| Cn1nnc(NC(=S)NC(=O)Cc2ccccc2)n1 | inconclusive: 5.01 µM [inhibitor, full curve, poor fit] |
| C=CCNS(=O)(=O)c1ccc(C(=O)O)cc1 | inconclusive: 0.0891 µM [inhibitor, full curve, poor fit] |
| COC(=O)c1ccc(CN(C)C(=O)C(C)(C)C)cc1 | inconclusive: 2 µM [inhibitor, partial curve, poor fit] |
| c1ccc(C2=Nc3ccccc3N=C(c3ccccc3)c3ccccc32)cc1 | inconclusive: 50.1 µM [inhibitor, partial curve, poor fit] |
| O=C(CCc1ncc(-c2ccc(F)cc2)o1)N1CCN(S(=O)(=O)c2ccc(F)cc2)CC1 | inactive |
| O=C(Nc1ccccc1F)c1coc(=O)c(Br)c1 | inconclusive: 20 µM [inhibitor, partial curve, poor fit] |
| O=C(CCN1C(=O)/C(=C\c2ccccc2)SC1=S)NNC(=O)c1cccnc1 | inactive |
| Cc1c(/C=C(\C#N)C(=O)Nc2cccc(Cl)c2)c2ccccc2n1Cc1ccccc1 | inconclusive: 17.8 µM [inhibitor, partial curve, poor fit] |
